For test [1], the target named is T1, recombinant active caspase-3 (PharMingen) (UniProt P42574).
T1 sequence (looked up): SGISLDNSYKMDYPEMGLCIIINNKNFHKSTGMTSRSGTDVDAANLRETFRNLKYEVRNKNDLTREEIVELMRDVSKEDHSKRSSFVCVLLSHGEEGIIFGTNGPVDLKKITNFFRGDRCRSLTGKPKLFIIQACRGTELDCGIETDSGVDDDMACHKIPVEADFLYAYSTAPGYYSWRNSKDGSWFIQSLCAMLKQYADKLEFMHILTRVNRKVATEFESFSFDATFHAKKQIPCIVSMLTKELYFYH
The test is described as follows: in vitro binding, 35S-labeled livin with recombinant active caspase-3, immunoprecipitation with caspase-specific antibody, SDS-PAGE, autoradiography.

By UniProt entry, the sequences of proteins in these tests, tags left out.
UniProt P55211: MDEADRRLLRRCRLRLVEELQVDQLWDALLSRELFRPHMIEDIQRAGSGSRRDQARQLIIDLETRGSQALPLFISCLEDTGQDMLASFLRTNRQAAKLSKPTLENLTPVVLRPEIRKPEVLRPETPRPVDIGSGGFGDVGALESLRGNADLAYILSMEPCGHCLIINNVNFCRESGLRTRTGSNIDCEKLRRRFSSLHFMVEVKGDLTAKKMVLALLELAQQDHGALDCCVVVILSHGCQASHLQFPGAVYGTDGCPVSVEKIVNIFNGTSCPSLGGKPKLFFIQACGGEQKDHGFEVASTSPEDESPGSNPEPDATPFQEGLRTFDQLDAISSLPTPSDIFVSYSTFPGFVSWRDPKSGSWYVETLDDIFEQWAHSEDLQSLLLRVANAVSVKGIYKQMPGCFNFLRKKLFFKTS

For test [2], the target named is unprocessed 45 kDa form of caspase-9 (UniProt P55211). The test is described as follows: co-immunoprecipitation from transfected HeLa cell lysates with anti-V5 antibody, Western blot for caspase-9.

These are yes or no findings as the source states them, for the method shown. For some assays here: In cells and extracts the contact can be indirect. Some results given as binding are weak or reduced against the parent protein; the word gives no strength. For some assays here: Where a sequence is shown, tags or fusion partners need not be part of it.

B1: livin (35[S]-methionine-labeled, wild-type, in vitro translated) (protein)
chain: MGPKDSAKCLHRGPQPSHWAAGDGPTQERCGPRSLGSPVLGLDTCRAWDHVDGQILGQLRPLTEEEEEEGAGATLSRGPAFPGMGSEELRLASFYDWPLTAEVPPELLAAAGFFHTGHQDKVRCFFCYGGLQSWKRGDDPWTEHAKWFPSCQFLLRSKGRDFVHSVQETHSQLLGSWDPWEEPEDAAPVAPSVPASGYPELPTPRREVQSESAQEPGARDVEAQLRRLQEERTCKVCLDRAVSIVFVPCGHLVCAECAPGLQLCPICRAPVRSRVRTFLS
modifications: 35[S]-methionine-labeled
For B1, the binding result in test [1] is “binds”.

B2: livin expressed from pcDNA3.1/V5/His-TOPO-livin in transfected HeLa cells (protein, not shown: small tags and cut ends)
chain: MGPKDSAKCLHRGPQPSHWAAGDGPTQERCGPRSLGSPVLGLDTCRAWDHVDGQILGQLRPLTEEEEEEGAGATLSRGPAFPGMGSEELRLASFYDWPLTAEVPPELLAAAGFFHTGHQDKVRCFFCYGGLQSWKRGDDPWTEHAKWFPSCQFLLRSKGRDFVHSVQETHSQLLGSWDPWEEPEDAAPVAPSVPASGYPELPTPRREVQSESAQEPGARDVEAQLRRLQEERTCKVCLDRAVSIVFVPCGHLVCAECAPGLQLCPICRAPVRSRVRTFLS
As for B2, in test [2], the binding result is on record as “binds”.

These data come from patent US20030087319A1.
